From PubChem BioAssay AID1347426 (Functional Genomics Laboratory (NCATS/FGL), 2020)
Out of some 31,000 sequences screened, about 1,400 (4.5%) were called active.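 The calls were made as follows: active = median seed-adjusted z-score above 1 or below -1; inactive = the rest.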 The list shows a part of the results.

Assay: Novel Modifiers of Survival Motor Neuron (SMN) Protein: Gene Identification via Genome-wide siRNA Screen;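 also: luminescence tracks full-length SMN protein made from the SMN2 reporter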
Settings: HEK293T SMN2-luciferase reporter, siRNA knockdown, 72 h; actives lie on both sides
Summary of the method: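 Steps: spot 1 pmol siRNA, add Lipofectamine RNAiMax in serum-free DMEM, seed HEK293T SMN2–luciferase reporter cells; incubate 72 h at 37 °C; add ONE-Glo; normalize luminescence to control siRNA, log10, MAD. Candidates: |MAD| > 1.0.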

Row | Sequence | median seed-adjusted z-score
1 | GAGGCUCGGUAAUCAAUGATT against DERL1 | inactive: 0.22
2 | CUACAAAAGUUUUUCCAGATT against COX7A2L | inactive: 0
3 | CCAUCGUUUUGGUCUUGUATT against VN1R2 | inactive: -0.151
4 | GCAGGUAAAUUGGUGGAUUTT against SLC16A7 | inactive: 0
5 | CCUUUUCCGUUGGAACCGATT against CAMTA2 | inactive: 0.152
6 | CUAAUUUACUAUUACGCUUTT against F2R | inactive: -0.392
7 | CAACAGUUGUCAUCUAUGUTT against GPN1 | inactive: -0.14
8 | GCUGUUAAACGGUAUCGGATT against CREBZF | inactive: 0.424
9 | GCAUAAUGAGAAGCGGUGATT against UPRT | inactive: -0.441
10 | CAACUAUACUAUGUGCAAUTT against CALCR | inactive: -0.404
11 | GGAAAUUGGAUACAACUGUTT against STK4 | inactive: 0.652
12 | CAACCCUACCAAUGCUACUTT against PTP4A2 | active: -1.45
13 | AGGAAUCCCUUGUCCUUUUTT against NFKBIE | inactive: -0.452
14 | AGGGACUGGUGGUCAAGAUTT against NTRK1 | inactive: -0.223
15 | CCCGCGAAGUUUUACGGAUTT against HOXD8 | inactive: -0.883
16 | GGAACAAAUCCAUAAGUGUTT against TRIM10 | inactive: -0.0934
17 | CAUGAGAAGUAUGACAACATT against GAPDH | inactive: 0.479
18 | CCAUCGGCUUGAUCAGGAATT against JUP | inactive: 0.15
19 | CGAUCAGACCUCAAGGACATT against SCARF1 | inactive: -0.324
20 | GCAUGGUCAUAGGCCUGAUTT against CYB561 | inactive: 0
21 | GCUCUGUCCGUAUCGAUCATT against RNASEN | inactive: 0.524
22 | GAGAUGCUGCGAUUCUACATT against ACBD4 | inactive: -0.363

20 entries from above, as tab-separated lines.
Row	Sequence	median seed-adjusted z-score
3	CCAUCGUUUUGGUCUUGUATT against VN1R2	inactive: -0.151
4	GCAGGUAAAUUGGUGGAUUTT against SLC16A7	inactive: 0
5	CCUUUUCCGUUGGAACCGATT against CAMTA2	inactive: 0.152
6	CUAAUUUACUAUUACGCUUTT against F2R	inactive: -0.392
7	CAACAGUUGUCAUCUAUGUTT against GPN1	inactive: -0.14
8	GCUGUUAAACGGUAUCGGATT against CREBZF	inactive: 0.424
9	GCAUAAUGAGAAGCGGUGATT against UPRT	inactive: -0.441
10	CAACUAUACUAUGUGCAAUTT against CALCR	inactive: -0.404
11	GGAAAUUGGAUACAACUGUTT against STK4	inactive: 0.652
12	CAACCCUACCAAUGCUACUTT against PTP4A2	active: -1.45
13	AGGAAUCCCUUGUCCUUUUTT against NFKBIE	inactive: -0.452
14	AGGGACUGGUGGUCAAGAUTT against NTRK1	inactive: -0.223
15	CCCGCGAAGUUUUACGGAUTT against HOXD8	inactive: -0.883
16	GGAACAAAUCCAUAAGUGUTT against TRIM10	inactive: -0.0934
17	CAUGAGAAGUAUGACAACATT against GAPDH	inactive: 0.479
18	CCAUCGGCUUGAUCAGGAATT against JUP	inactive: 0.15
19	CGAUCAGACCUCAAGGACATT against SCARF1	inactive: -0.324
20	GCAUGGUCAUAGGCCUGAUTT against CYB561	inactive: 0
21	GCUCUGUCCGUAUCGAUCATT against RNASEN	inactive: 0.524
22	GAGAUGCUGCGAUUCUACATT against ACBD4	inactive: -0.363

Copied from above, entries 9–10
Row | Sequence | median seed-adjusted z-score
9 | GCAUAAUGAGAAGCGGUGATT against UPRT | inactive: -0.441
10 | CAACUAUACUAUGUGCAAUTT against CALCR | inactive: -0.404

Later entries.

Row | Sequence | median seed-adjusted z-score
23 | UCAGCUUCAGCUUAACUGATT against TUBA1B | inactive: 0.0888
24 | ACCUCACCAAGAUCACAAATT against SHBG | inactive: 0.587
25 | UGAAGAACCUGGACGCCAATT against CCL24 | inactive: 0
26 | GGGCACGGGUGAUAUGAAUTT against CTDP1 | active: -2.29
27 | CAUAGGAACUUUUCACUUATT against MARCKS | inactive: 0.379
28 | GCAUGAAUGUGACUGAACUTT against RHOXF2 | inactive: -0.331
29 | CAGGAAGUCUGACCAAUAATT against LPL | inactive: 0.389
30 | GCCUGCUUCUGUAACCUGATT against WISP1 | inactive: -0.0121
31 | CCAGUUGACUUUUACCGAUTT against SLIT2 | inactive: -0.592
32 | CCAGCAAGUAGAUAUAGAATT against COIL | inactive: 0
33 | GAAUGAUCCUUUCCUCUCATT against CREB3L2 | inactive: -0.192
34 | GAAUUAGCAUCAACACCUUTT against GUCY1A2 | inactive: -0.186
35 | AUAAUUACGGUGACUCUAATT against KIF25 | inactive: -0.0031
36 | GGACUAUUUCCUCAAGUUUTT against TRIM47 | inactive: 0.707
37 | CAGAAACUUUCGAACAAAATT against POU3F1 | inactive: 0.279
38 | CGACUUCUACUACAUGGAUTT against CHST8 | inactive: 0.341
39 | CAACGUAAUAGUUCUGGAATT against IL2 | inactive: 0.0694
40 | CAGUGACCACUGAUACUAATT against CYP2C8 | inactive: 0.371
41 | GGUGAACACCAUUACCGAATT against MAP3K5 | inactive: -0.285
42 | GGAACAUUUUCGUUGCUGUTT against IFNGR2 | inactive: 0.148
43 | CCACAAGAGUUCGAACUCATT against ZFX | inactive: -0.581
44 | AGCUCAAACUUUGAGAGCATT against SOX4 | inactive: -0.188

Row | Sequence | median seed-adjusted z-score
45 | GCAGGAUAAUAAAAACUUGTT against EPHA10 | inactive: 0.502
46 | AGUUCAUUCUGACAGAUGATT against VDR | inactive: -0.031
47 | GAGCAAGACUUCUACGUGATT against SERPINA5 | active: -1.01
48 | GAACUACAGAAGACGAUAUTT against MDM4 | inactive: 0.0554
49 | GGCUAGUGAUAUACUAUAUTT against RPS6KA6 | inactive: -0.0821
50 | GGAUUUCCAGGGAUAUUUATT against CDKN2B | inactive: 0.0154
51 | CAGUAUCUCCUGCAUCAAATT against DDX24 | inactive: 0.246
52 | GGCCGAGUCUUGGAUUAGATT against MUC4 | inactive: 0.128
53 | GCGCUGUGCAAGACAGUCATT against OPRL1 | inactive: -0.9
54 | CGACACCGGAUAAACCAAATT against HES1 | inactive: -0.262
55 | GCCGUUUAAUACCCGAUGATT against RNF125 | inactive: 0.204
56 | AGGGAACAAGUUUACCAAATT against GTF2IRD1 | inactive: -0.282
57 | GCAGACUCUCGACAUCCGATT against MAFK | active: 1.73
58 | CGUGGUCACUGUCUCUGAATT against RFX1 | inactive: 0.818
59 | GAAUAUGCCUACGUGCUAATT against METTL1 | inactive: 0.0494
60 | AAAUAGUAAGAGAUGUUGUTT against SPSB2 | inactive: -0.741
61 | GGACAGUAAUUUUGAUAGUTT against ADAM2 | inactive: -0.116
62 | GCUAUAUGCUGGAGACAAATT against MPP4 | inactive: 0.13
63 | GCUCCGAGGAGAAUGCAAATT against SLC22A18AS | inactive: 0.0382
64 | GCUUCAAGAUGUACAUGCATT against IFIT5 | inactive: 0
65 | GAAGUAUGAUGACUCCUUUTT against MAPK12 | inactive: 0.0649
66 | CAUUGAGGGCCGAAAAGAATT against SGCA | inactive: 0.144

Row | Sequence | median seed-adjusted z-score
67 | GCCUCAAUGUCGUGGAGAATT against FRAG1 | inactive: -0.554
68 | CCACGAUGAAGGAACGAGATT against PDE4A | inactive: -0.147
69 | GAAGAUAUCUGACUCAAAATT against GPR156 | inactive: 0
70 | GGCUUGGUGUUGCUAGCUUTT against RNF26 | inactive: 0.359
71 | AAAGCUUUCUGGUUAGAUUTT against TUBA1B | inactive: 0.0888
72 | CCGCAGAUGCAAAAGCUUUTT against GSTA3 | inactive: 0.334
73 | GAAUACCUGAAGUUCGAUATT against NDUFA10 | inactive: -0.392
74 | GGAAUACAUCAGAAUGGUATT against ITCH | inactive: 0.199
75 | CCGCUCGCUUAGGAACUUATT against CHPT1 | inactive: 0.0678
76 | AUAUGAACGGAAUAAAUAATT against UBE2V2 | inactive: 0.556
77 | GAAUGAUAUUGUCCAUCGATT against CDKL5 | inactive: -0.256
78 | GGCUUCAACUACAACAGCATT against FBN3 | inactive: 0.264
79 | GACUUUACAUAUAAGAGCATT against DUSP19 | inactive: 0.343
80 | AGAGGAACCUGGCCGUGAATT against D2HGDH | inactive: -0.637
81 | GCAUUAGCAUGGACCGGUATT against CCR6 | inactive: 0.103
82 | CCACCUUGCAGAAAACCGATT against ITPR3 | active: -1.28
83 | CCAUGAGCAAGAACGAUUATT against ALPK1 | inactive: -0.0149
84 | ACCUCUCACUUUGCUGUGATT against FCRLB | inactive: -0.00684
85 | CAGACAGAAGAAUAUGUAATT against LSM6 | inactive: -0.0501
86 | ACCACCAAAUGAAGAAUAATT against AKR7A3 | inactive: 0.455
87 | CCAACUCCAGGUUACCCAATT against NCOR1 | inactive: 0.0767
88 | CAGAGAUUGAGGAAGCUAATT against PKD2 | inactive: 0.219

Row | Sequence | median seed-adjusted z-score
89 | CGAGGAAUACAACACCAAUTT against GAK | inactive: 0.488
90 | ACACGACGGUGUUUCCCUUTT against CYP11B1 | inactive: -0.199
91 | ACCCGCAAGAGGUUCUUUATT against SARM1 | inactive: 0.343
92 | CCUUUGACCAGUCCACUUATT against PCDHAC2 | inactive: -0.107
93 | UCCUCGUCCUGGUCAACUATT against SERPINA6 | inactive: 0.615
94 | GAUCGGAAGUGCCUACAAATT against ADAM23 | inactive: -0.0279
95 | UGAGGACCAAUGACCGGAATT against MGAT1 | inactive: 0.138
96 | GGGUGUCAGUGUUGCAGAATT against DDEFL1 | inactive: 0.293
97 | GCAAAGAUAAGGAACCCGATT against PAFAH1B3 | inactive: -0.381
98 | CUCUUCAUUUUUCGCAUUATT against GJB2 | inactive: -0.408
99 | GCUCUUUACGGCUGACAAUTT against IHH | inactive: 0.0642
100 | GAAGAGCGGCAACAAGAUATT against MAST3 | inactive: -0.642
101 | UGAUCGACCUAGACGCAGATT against PCDHA9 | inactive: -0.295
102 | GCAGAAAUCCAACUUAGAGTT against CSHL1 | inactive: -0.54
103 | GUGUGAGAAUUACAGUGAATT against ADAMTSL3 | inactive: -0.0419
104 | GCACUUAACGUAAUCACGATT against CCNH | inactive: -0.659
105 | GGCUUUACGUGGAAGUCAATT against HKR1 | inactive: -0.358
106 | GGACUCAAUGAAUUCAAUATT against NEK9 | inactive: 0.0698
107 | GGUUGGCAUUGACAACAAATT against TSC22D4 | inactive: -0.508
